Test results reported in article PMC7210984.
For at least one entry, the source does not settle the construct or the ends of the probe. At least one result comes from cells or an extract, where the contact may be indirect. No signal at the amounts used counts as a negative. Where a protein sequence is shown, tags need not be part of it.

Target: T1, hSOX9 (human) (UniProt P48436)
T1 sequence (looked up, limits assumed): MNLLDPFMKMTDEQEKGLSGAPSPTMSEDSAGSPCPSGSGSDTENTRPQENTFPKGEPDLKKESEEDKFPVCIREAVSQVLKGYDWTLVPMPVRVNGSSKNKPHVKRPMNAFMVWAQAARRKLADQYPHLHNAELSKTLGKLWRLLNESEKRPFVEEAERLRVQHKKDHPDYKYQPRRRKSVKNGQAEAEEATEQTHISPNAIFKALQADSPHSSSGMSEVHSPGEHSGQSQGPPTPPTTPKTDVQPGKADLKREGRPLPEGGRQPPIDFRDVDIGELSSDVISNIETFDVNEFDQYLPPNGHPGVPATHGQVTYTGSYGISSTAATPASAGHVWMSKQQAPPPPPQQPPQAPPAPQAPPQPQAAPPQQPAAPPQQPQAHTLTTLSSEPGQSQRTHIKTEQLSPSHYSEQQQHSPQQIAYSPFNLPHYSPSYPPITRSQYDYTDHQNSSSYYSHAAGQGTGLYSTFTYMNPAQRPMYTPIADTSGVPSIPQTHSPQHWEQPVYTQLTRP
Assay: EMSA
Details: hSOX9 HEK293 nuclear extract, EMSA: 13 fmol labeled duplex with nuclear extract, 20 min at 25 °C, 4% acrylamide 0.5x TBE gel, binding buffer, salt and pH not given, protein in a lysate after overexpression, label: 32P 5' end (T4 PNK)

“GGGATGAAAAGGCTCTTCATGTCTGCA (double strand) [mSnorc SRY5' probe]”: binds.

“GGGATGCCGAGGCTCTTCATGTCTGCA (double strand) [mSnorc SRY5'mut probe]”: no binding.

“TCTGCACGCGGGCCGTCTGTGAGCATG (double strand) [mSnorc SRY3'mut probe]”: no binding.

“TCTGCACAAAGGCCGTCTGTGAGCATG (double strand) [mSnorc SRY3' probe]”: binds (additional nonspecific bands on this probe).
